Measured values as given in publication PMC6043850.
These are yes or no findings as the source states them, for the method shown. In cells and extracts the contact can be indirect. Where a sequence is shown, tags or fusion partners need not be part of it. One block for each molecule: values may come before it.

Protein sequences, listed by entry. Tags and fused reporters are not part of them.
UniProt O00463: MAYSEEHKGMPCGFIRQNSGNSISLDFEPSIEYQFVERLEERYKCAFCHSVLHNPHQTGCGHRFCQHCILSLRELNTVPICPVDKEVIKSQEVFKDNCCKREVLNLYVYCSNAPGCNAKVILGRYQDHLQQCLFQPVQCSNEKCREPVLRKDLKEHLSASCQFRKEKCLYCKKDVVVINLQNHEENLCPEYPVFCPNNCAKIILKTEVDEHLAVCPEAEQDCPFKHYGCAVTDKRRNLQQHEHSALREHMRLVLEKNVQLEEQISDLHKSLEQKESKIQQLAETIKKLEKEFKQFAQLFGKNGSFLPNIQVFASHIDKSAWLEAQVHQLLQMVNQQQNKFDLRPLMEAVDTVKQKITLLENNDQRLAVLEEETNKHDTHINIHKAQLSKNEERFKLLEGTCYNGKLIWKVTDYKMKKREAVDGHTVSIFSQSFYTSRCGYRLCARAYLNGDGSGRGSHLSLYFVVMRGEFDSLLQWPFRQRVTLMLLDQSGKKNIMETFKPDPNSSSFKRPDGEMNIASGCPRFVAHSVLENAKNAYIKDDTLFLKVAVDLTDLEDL
UniProt P29466: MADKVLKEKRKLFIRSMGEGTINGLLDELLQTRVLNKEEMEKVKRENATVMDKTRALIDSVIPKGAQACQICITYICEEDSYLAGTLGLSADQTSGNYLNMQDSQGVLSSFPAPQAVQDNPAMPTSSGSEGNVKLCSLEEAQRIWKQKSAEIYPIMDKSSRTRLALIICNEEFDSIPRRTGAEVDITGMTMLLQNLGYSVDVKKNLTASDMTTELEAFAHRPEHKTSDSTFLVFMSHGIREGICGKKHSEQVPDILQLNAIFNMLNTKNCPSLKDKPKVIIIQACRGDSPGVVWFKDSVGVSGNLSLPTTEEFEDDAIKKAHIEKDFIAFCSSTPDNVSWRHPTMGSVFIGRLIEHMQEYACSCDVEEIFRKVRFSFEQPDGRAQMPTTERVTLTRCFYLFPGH

How the values were obtained:
Myc-TRAF2 = target: T1, Myc-TRAF2 (UniProt Q12933); assay: co-IP; Myc-TRAF2 expressed in HeLa for 48 h; Myc-Trap IP, immunoblot for endogenous caspases
T1 sequence: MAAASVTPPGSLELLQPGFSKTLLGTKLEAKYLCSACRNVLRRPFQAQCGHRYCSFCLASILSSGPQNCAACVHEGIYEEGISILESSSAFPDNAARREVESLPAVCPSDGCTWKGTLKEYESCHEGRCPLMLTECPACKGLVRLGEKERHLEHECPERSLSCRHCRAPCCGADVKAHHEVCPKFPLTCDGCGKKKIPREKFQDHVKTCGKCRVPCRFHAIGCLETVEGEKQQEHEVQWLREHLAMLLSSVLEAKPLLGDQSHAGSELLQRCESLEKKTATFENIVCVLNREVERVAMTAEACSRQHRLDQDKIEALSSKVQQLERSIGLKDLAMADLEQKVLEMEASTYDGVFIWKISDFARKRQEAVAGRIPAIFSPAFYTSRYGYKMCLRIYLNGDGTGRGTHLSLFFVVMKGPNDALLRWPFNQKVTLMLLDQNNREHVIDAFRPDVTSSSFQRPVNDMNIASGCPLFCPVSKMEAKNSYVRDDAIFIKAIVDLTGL

Casp2(C320A)-Myc = target: T2, Casp2(C320A)-Myc (UniProt P42575); assay: co-IP; Casp2(C320A)-Myc and Flag-tagged TRAF1-7 co-expressed in HEK293T for 48 h; anti-Myc agarose IP, immunoblot
T2 sequence: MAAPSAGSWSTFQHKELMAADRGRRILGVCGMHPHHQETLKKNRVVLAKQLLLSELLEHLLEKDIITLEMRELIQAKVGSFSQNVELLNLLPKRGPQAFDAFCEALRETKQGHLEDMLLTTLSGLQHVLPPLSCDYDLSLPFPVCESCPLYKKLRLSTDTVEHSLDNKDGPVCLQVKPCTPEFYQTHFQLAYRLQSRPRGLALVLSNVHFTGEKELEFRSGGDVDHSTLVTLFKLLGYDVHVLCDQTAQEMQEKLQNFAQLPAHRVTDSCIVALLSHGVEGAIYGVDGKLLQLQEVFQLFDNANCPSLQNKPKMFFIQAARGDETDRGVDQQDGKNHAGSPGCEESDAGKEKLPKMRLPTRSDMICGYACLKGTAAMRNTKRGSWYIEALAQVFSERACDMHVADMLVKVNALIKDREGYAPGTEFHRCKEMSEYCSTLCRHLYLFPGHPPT

Molecule: Flag-TRAF5 (from UniProt O00463 1-557)
binding (Casp2(C320A)-Myc): no binding

B1: caspase-4 (endogenous) (protein, UniProt P49662 1-377)
chain: MAEGNHRKKPLKVLESLGKDFLTGVLDNLVEQNVLNWKEEEKKKYYDAKTEDKVRVMADSMQEKQRMAGQMLLQTFFNIDQISPNKKAHPNMEAGPPESGESTDALKLCPHEEFLRLCKERAEEIYPIKERNNRTRLALIICNTEFDHLPPRNGADFDITGMKELLEGLDYSVDVEENLTARDMESALRAFATRPEHKSSDSTFLVLMSHGILEGICGTVHDEKKPDVLLYDTIFQIFNNRNCLSLKDKPKVIIVQACRGANRGELWVRDSPASLEVASSQSSENLEEDAVYKTHVEKDFIAFCSSTPHNVSWRDSTMGSIFITQLITCFQKYSWCCHLEEVFRKVQQSFETPRAKAQMPTIERLSMTRYFYLFPGN
binding (Myc-TRAF2): no binding

B4: caspase-5 (endogenous) (protein, UniProt P51878 1-434)
chain: MAEDSGKKKRRKNFEAMFKGILQSGLDNFVINHMLKNNVAGQTSIQTLVPNTDQKSTSVKKDNHKKKTVKMLEYLGKDVLHGVFNYLAKHDVLTLKEEEKKKYYDTKIEDKALILVDSLRKNRVAHQMFTQTLLNMDQKITSVKPLLQIEAGPPESAESTNILKLCPREEFLRLCKKNHDEIYPIKKREDRRRLALIICNTKFDHLPARNGAHYDIVGMKRLLQGLGYTVVDEKNLTARDMESVLRAFAARPEHKSSDSTFLVLMSHGILEGICGTAHKKKKPDVLLYDTIFQIFNNRNCLSLKDKPKVIIVQACRGEKHGELWVRDSPASLALISSQSSENLEADSVCKIHEEKDFIAFCSSTPHNVSWRDRTRGSIFITELITCFQKYSCCCHLMEIFRKVQKSFEVPQAKAQMPTIERATLTRDFYLFPGN
binding (Myc-TRAF2): no binding

Results, then the molecule that gave them:

binding (Myc-TRAF2): no binding
Molecule: caspase-1 (endogenous) (from UniProt P29466 1-404)

binding (Casp2(C320A)-Myc): no binding
B2: Flag-TRAF7 (protein, UniProt Q6Q0C0 1-670)
chain: MSSGKSARYNRFSGGPSNLPTPDVTTGTRMETTFGPAFSAVTTITKADGTSTYKQHCRTPSSSSTLAYSPRDEEDSMPPISTPRRSDSAISVRSLHSESSMSLRSTFSLPEEEEEPEPLVFAEQPSVKLCCQLCCSVFKDPVITTCGHTFCRRCALKSEKCPVDNVKLTVVVNNIAVAEQIGELFIHCRHGCRVAGSGKPPIFEVDPRGCPFTIKLSARKDHEGSCDYRPVRCPNNPSCPPLLRMNLEAHLKECEHIKCPHSKYGCTFIGNQDTYETHLETCRFEGLKEFLQQTDDRFHEMHVALAQKDQEIAFLRSMLGKLSEKIDQLEKSLELKFDVLDENQSKLSEDLMEFRRDASMLNDELSHINARLNMGILGSYDPQQIFKCKGTFVGHQGPVWCLCVYSMGDLLFSGSSDKTIKVWDTCTTYKCQKTLEGHDGIVLALCIQGCKLYSGSADCTIIVWDIQNLQKVNTIRAHDNPVCTLVSSHNVLFSGSLKAIKVWDIVGTELKLKKELTGLNHWVRALVAAQSYLYSGSYQTIKIWDIRTLDCIHVLQTSGGSVYSIAVTNHHIVCGTYENLIHVWDIESKEQVRTLTGHVGTVYALAVISTPDQTKVFSASYDRSLRVWSMDNMICTQTLLRHQGSVTALAVSRGRLFSGAVDSTVKVWTC

binding (Casp2(C320A)-Myc): no binding
B3: TRAF4 with C-terminal Flag tag (protein, UniProt Q9BUZ4 1-470)
chain: MPGFDYKFLEKPKRRLLCPLCGKPMREPVQVSTCGHRFCDTCLQEFLSEGVFKCPEDQLPLDYAKIYPDPELEVQVLGLPIRCIHSEEGCRWSGPLRHLQGHLNTCSFNVIPCPNRCPMKLSRRDLPAHLQHDCPKRRLKCEFCGCDFSGEAYESHEGMCPQESVYCENKCGARMMRRLLAQHATSECPKRTQPCTYCTKEFVFDTIQSHQYQCPRLPVACPNQCGVGTVAREDLPGHLKDSCNTALVLCPFKDSGCKHRCPKLAMARHVEESVKPHLAMMCALVSRQRQELQELRRELEELSVGSDGVLIWKIGSYGRRLQEAKAKPNLECFSPAFYTHKYGYKLQVSAFLNGNGSGEGTHLSLYIRVLPGAFDNLLEWPFARRVTFSLLDQSDPGLAKPQHVTETFHPDPNWKNFQKPGTWRGSLDESSLGFGYPKFISHQDIRKRNYVRDDAVFIRAAVELPRKILS
